Reference: paper doi:10.1101/2024.09.22.614354 (bioRxiv, 2024)
Changes are numbered by the printed parent chain. Names and notes keep the numbering of the source. Like-named read-outs stand apart in the source and are kept apart here. These are yes or no findings as the source states them, for the method shown. Some binding calls cover weakened binding; strength is not graded here. Where no end group is shown, it is not given here. TMR = tetramethyl rhodamine dye

B1: Rb^P A488V (domain or fragment, UniProt P06400 380-788)
chain: NTIQQLMMILNSASDQPSENLISYFNNCTVNPKESILKRVKDIGYIFKEKFAKAVGQGCVEIGSQRYKLGVRLYYRVMESMLKSEEERLSIQNFSKLLNDNIFHMSLLVCALEVVMATYSRSTSQNLDSGTDLSFPWILNVLNLKAFDFYKVIESFIKAEGNLTREMIKHLERCEHRIMESLAWLSDSPLFDLIKQSKDREGPTDHLESACPLNLPLQNNHTAADMYLSPVRSPKKKGSTTRVNSTANAETQATSAFQTQKPLKSTSLSLFYKKVYRLAYLRLNTLCERLLSEHPELEHIIWTLFQHTLQNEYELMRDRHLDQIMMCSMYGICKVKNIDLKFKIIVTAYKDLPHAVQETFKRVLIKEEEYDSIIVFYNSVFMQRLKTNILQYASTRPPTLSPIPHIPRS
B2: Rb^P A490S (domain or fragment, UniProt P06400 380-788)
chain: B1 chain with V109A, A111S
B3: Rb^P A490T (domain or fragment, UniProt P06400 380-788)
chain: B1 chain with V109A, A111T
B4: Rb^P L550I (domain or fragment, UniProt P06400 380-788)
chain: B1 chain with V109A, L171I
B5: Rb^P M695I (domain or fragment, UniProt P06400 380-788)
chain: B1 chain with V109A, M316I
B6: Rb^P I703V (domain or fragment, UniProt P06400 380-788)
chain: B1 chain with V109A, I324V
B7: Rb^P M704V (domain or fragment, UniProt P06400 380-788)
chain: B1 chain with V109A, M325V
B8: Rb^P E554K (domain or fragment, UniProt P06400 380-788)
chain: B1 chain with V109A, E175K
B9: Rb^P E533K (domain or fragment)
chain: B1 chain with V109A, E154K
B10: Rb^P E492Q (domain or fragment, UniProt P06400 380-788)
chain: B1 chain with V109A, E113Q
B11: Rb^P A490V (domain or fragment, UniProt P06400 380-788)
chain: B1 chain with V109A, A111V
B12: Rb^P K462E (domain or fragment, UniProt P06400 380-788)
chain: B1 chain with K83E, V109A
B13: Rb^P E539D (domain or fragment, UniProt P06400 380-788)
chain: B1 chain with V109A, E160D
B14: Rb^P S751Y (domain or fragment, UniProt P06400 380-788)
chain: B1 chain with V109A, S372Y
B15: Rb^P T738I (domain or fragment, UniProt P06400 380-788)
chain: B1 chain with V109A, T359I
B16: Rb^P D697E (domain or fragment, UniProt P06400 380-788)
chain: B1 chain with V109A, D318E
B17: Rb^P A525G (domain or fragment, UniProt P06400 380-788)
chain: B1 chain with V109A, A146G
B18: Rb^P R741C (domain or fragment, UniProt P06400 380-788)
chain: B1 chain with V109A, R362C
B19: Rb^P R741S (domain or fragment, UniProt P06400 380-788)
chain: B1 chain with V109A, R362S
B20: Rb^P R763T (domain or fragment, UniProt P06400 380-788)
chain: B1 chain with V109A, R384T

Tests used:
[1] = target: TMR-E2F1^TD (peptide of the E2F1 transactivation domain, N-labeled with tetramethyl rhodamine); experiment: fluorescence polarisation
[2] = target: TMR-E2F1^TD (peptide of the E2F1 transactivation domain, N-labeled with tetramethyl rhodamine); experiment: fluorescence polarisation; remark: listed apart in the source

| Binder | binding [1] | binding [2] |
| --- | --- | --- |
| B1 | binds | – |
| B2 | binds | – |
| B3 | binds | – |
| B4 | binds | – |
| B5 | binds | – |
| B6 | binds | – |
| B7 | binds | binds |
| B8 | binds | binds |
| B9 | binds | – |
| B10 | binds | – |
| B11 | binds | – |
| B12 | binds | – |
| B13 | binds | – |
| B14 | binds | binds |
| B15 | binds | – |
| B16 | binds | – |
| B17 | binds | – |
| B18 | binds | – |
| B19 | binds | – |
| B20 | binds | – |
